Measured values from patent publication US8609870B2, “Treating various disorders using TrkB agonists” (Emory University, priority 2008, dated 2013).
Some of these results come from one statement about several compounds together.

By UniProt entry, the sequences of proteins in these tests, tags left out. Residues count along the entry.
UniProt P15209, 32-821: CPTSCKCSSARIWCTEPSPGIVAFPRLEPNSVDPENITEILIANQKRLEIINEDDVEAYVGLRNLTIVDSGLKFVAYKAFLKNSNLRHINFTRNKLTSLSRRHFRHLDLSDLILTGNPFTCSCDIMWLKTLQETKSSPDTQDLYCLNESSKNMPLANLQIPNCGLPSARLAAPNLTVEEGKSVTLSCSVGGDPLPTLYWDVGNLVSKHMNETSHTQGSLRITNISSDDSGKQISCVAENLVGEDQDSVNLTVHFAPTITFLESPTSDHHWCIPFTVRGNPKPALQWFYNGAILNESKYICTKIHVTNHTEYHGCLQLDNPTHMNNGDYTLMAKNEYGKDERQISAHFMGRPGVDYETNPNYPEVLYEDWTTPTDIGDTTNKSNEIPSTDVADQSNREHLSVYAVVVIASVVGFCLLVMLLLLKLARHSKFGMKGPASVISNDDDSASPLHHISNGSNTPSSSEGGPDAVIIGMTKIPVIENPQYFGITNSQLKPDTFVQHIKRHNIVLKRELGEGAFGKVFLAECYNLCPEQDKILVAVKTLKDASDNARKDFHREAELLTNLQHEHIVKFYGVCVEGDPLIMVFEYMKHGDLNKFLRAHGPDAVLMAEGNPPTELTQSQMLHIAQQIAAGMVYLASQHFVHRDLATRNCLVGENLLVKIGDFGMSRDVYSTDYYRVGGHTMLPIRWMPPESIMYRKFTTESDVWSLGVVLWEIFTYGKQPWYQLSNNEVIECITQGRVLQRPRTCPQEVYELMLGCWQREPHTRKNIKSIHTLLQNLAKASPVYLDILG

Molecular target: T1, TrkB (Mus musculus, UniProt P15209)
T1 construct: Brain lysates were prepared and analyzed by immunoblotting; from tissue; host or cells: mouse brain
Assay: TrkB activation in mouse brain after i.p. or oral administration
Type: in vivo
Settings: C57BL/6J mice, sacrificed 2 to 4 hours after administration
Experimental: Unless specifically described, brain tissues are fixed in 4% paraformaldehyde overnight followed by paraffin embedding. Sections of 5 μm are cut. For immunohistochemical staining, brain sections are deparaffinized in xylene and rehydrated in graded alcohols. Endogenous peroxidase activity are blocked by 3% hydrogen peroxide for 5 minutes and all slides are boiled in 10 mM sodium citrate buffer (pH 6.0) for 10 minutes. Phosphorylated Trk A, Trk A, phosphorylated Trk B, and Trk B are detected using specific antibodies and, e.g., a Zymed HistostainPlus AEC kit (Invitrogen; Carlsbad, Calif.). Slides then are counterstained with hematoxylin.
To assess whether an identified active compound provokes TrkB activation in the brain, mice are intraperitoneally injected with a dose of 5 mg/kg and analyzed at various time points. […] Further, whether the protein and mRNA levels of the neurotrophic receptors is altered after treatment with an identified active compound is measured.
Both Akt and Erk1/2 were robustly activated by these molecules as well). […] The minimal required drug concentration was about 100-250 nM (see FIG. 7, right panels). […] To assess whether deoxygedunin provokes TrkB activation in the brain, mice (i.p.) were injected with a dose of 5 mg/kg for various time points. […] Brain lysates were prepared and analyzed by immunoblotting (see FIG. 10).

## O=c1cc(-c2ccccc2)oc2c(O)c(O)ccc12 [7,8-dihydroxyflavone]
  oral dosage activating TrkB in mouse brain: 1 to 5 mg/kg
